Measurements reported in PubChem BioAssay AID1259308 (NCATS, 2017).
Test: 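Knock-downs that increase output of a recombinant reporter protein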 (primary screen). System: human HEK293 embryonic kidney cells stably expressing firefly luciferase (HEK-CMV-Luc2-Hygro). Knock-down reagent: single siRNA against human genes, 0.8 pmol siRNA per well. Timing: 72 h. Measured: 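Luciferase light (ONE-Glo) measured on one replicate plate set and viability (CellTiter-Glo) on the other, scaled to a negative control siRNA, with robust z-scores and luciferase per cell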. Reading the numbers: total luciferase, z-score: higher = more reporter protein produced. Rule for the call: 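Active when the median/MAD z-score for overall luciferase is greater than 3; a gene was taken forward for validation with new siRNAs if at least two of its three siRNAs passed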. Calls: active = raised luciferase; inactive = no rise.
The deposit covers about 59,000 reagents; shown is a part drawn at random. About 1,510 of them (2.6%) were called active. 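Calls use total luciferase alone and ignore viability, so some active siRNAs may act by altering cell number.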 Entries without a mark were called inactive. The numbers tell different reagents against one gene apart. Further read-outs or replicates are left out here.

gene,reagent,"total luciferase, z-score"
RFPL4A (ret finger protein like 4A),1,0.188
RFPL4A (ret finger protein like 4A),2,1.93
RFPL4A (ret finger protein like 4A),3,0.494
NDUFA8 (NADH:ubiquinone oxidoreductase subunit A8),1,-1.36
NDUFA8 (NADH:ubiquinone oxidoreductase subunit A8),2,0.0229
NDUFA8 (NADH:ubiquinone oxidoreductase subunit A8),3,-0.611
FOLR2 (folate receptor beta),1,0.468
FOLR2 (folate receptor beta),2,-1.26
FOLR2 (folate receptor beta),3,-0.111
"MPL (MPL proto-oncogene, thrombopoietin receptor)",1,0.741
"MPL (MPL proto-oncogene, thrombopoietin receptor)",2,-0.6
"MPL (MPL proto-oncogene, thrombopoietin receptor)",3,1.36
SCD (stearoyl-CoA desaturase),1,0.00343
SCD (stearoyl-CoA desaturase),2,-1.05
SCD (stearoyl-CoA desaturase),3,0.387
SSB (small RNA binding exonuclease protection factor La),1,1.73
SSB (small RNA binding exonuclease protection factor La),2,-0.379
SSB (small RNA binding exonuclease protection factor La),3,2.29

Part of the list above in another layout:
NDUFA8 (NADH:ubiquinone oxidoreductase subunit A8) #2
- total luciferase, z-score: 0.0229

NDUFA8 (NADH:ubiquinone oxidoreductase subunit A8) #3
- total luciferase, z-score: -0.611

FOLR2 (folate receptor beta) #1
- total luciferase, z-score: 0.468

FOLR2 (folate receptor beta) #2
- total luciferase, z-score: -1.26

Continued.
gene,reagent,"total luciferase, z-score"
VIT (vitrin),1,-0.0275
VIT (vitrin),2,-0.0665
VIT (vitrin),3,-0.701
STOML1 (stomatin like 1),1,0.946
STOML1 (stomatin like 1),2,-0.944
STOML1 (stomatin like 1),3,0.297
SUCLA2P1 (SUCLA2 pseudogene 1),1,0.551
SUCLA2P1 (SUCLA2 pseudogene 1),2,-1.2
SUCLA2P1 (SUCLA2 pseudogene 1),3,-0.93
HSD11B2 (hydroxysteroid 11-beta dehydrogenase 2),1,-0.706
HSD11B2 (hydroxysteroid 11-beta dehydrogenase 2),2,-0.093
HSD11B2 (hydroxysteroid 11-beta dehydrogenase 2),3,1.13
RTF2 (replication termination factor 2),1,-0.28
RTF2 (replication termination factor 2),2,-0.119
RTF2 (replication termination factor 2),3,-0.293
ATG4A (autophagy related 4A cysteine peptidase),1,-0.208
ATG4A (autophagy related 4A cysteine peptidase),2,-0.934
ATG4A (autophagy related 4A cysteine peptidase),3,-0.773
PEBP4 (phosphatidylethanolamine binding protein 4),1,-1.03
PEBP4 (phosphatidylethanolamine binding protein 4),2,1.28
PEBP4 (phosphatidylethanolamine binding protein 4),3,-0.646
